This is an account of results in patent US20070099822A1, “Regulation of tissue mineralization and phosphate metabolism by asarm peptides” (priority 2003, published 2007).

The chains behind the UniProt entries cited, without tags or fusion partners. Residues count along the entry.
UniProt P78562, residues 46-749: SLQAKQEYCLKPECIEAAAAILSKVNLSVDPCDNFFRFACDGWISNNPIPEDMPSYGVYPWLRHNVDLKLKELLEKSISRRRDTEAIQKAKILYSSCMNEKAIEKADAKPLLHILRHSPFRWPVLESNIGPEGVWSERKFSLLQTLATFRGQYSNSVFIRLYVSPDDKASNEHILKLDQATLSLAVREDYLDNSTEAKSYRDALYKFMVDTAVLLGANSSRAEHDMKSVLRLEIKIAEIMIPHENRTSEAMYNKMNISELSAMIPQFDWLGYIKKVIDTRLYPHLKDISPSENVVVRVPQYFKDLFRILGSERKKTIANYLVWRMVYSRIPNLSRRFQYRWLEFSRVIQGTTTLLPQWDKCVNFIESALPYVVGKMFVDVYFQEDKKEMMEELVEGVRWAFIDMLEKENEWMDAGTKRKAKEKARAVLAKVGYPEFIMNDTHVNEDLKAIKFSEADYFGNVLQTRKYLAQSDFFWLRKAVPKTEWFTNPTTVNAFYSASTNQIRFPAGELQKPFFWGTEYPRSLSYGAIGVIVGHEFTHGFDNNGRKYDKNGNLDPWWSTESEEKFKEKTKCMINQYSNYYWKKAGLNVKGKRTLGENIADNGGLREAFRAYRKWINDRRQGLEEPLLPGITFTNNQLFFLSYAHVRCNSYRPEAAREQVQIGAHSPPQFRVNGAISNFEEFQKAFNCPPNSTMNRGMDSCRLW

In this experiment the target is mammalian expressed human recombinant secreted PHEX (secPHEX) (human) (UniProt P78562). Put plainly: SPR, secPHEX immobilized at 3500 RU, secPHEX analyte.

No constants are given. Whether binding was seen depends on the method and setting. Some entries that bind do so weakly or less than the wild type.

“mammalian expressed human recombinant secreted PHEX (secPHEX) (from UniProt P78562 46-749) (enzyme)”: the binding entry is on record as “binds”.
